Measured values as given in PubChem BioAssay AID248 (DTP/NCI, 2004).
The list is a part of this screen's results and no random one: it is rich in T/C values a quarter to a half above the control, in often repeated tests (any T/C) and in doses without a T/C. Further doses and runs are listed elsewhere. T/C: endpoint of the treated group in % of that of the vehicle group. Some doses have a count of surviving animals in place of a T/C: the source files T/C as zero there, which appears to mark a toxic dose or a test without result, not a measured value. Some survivor counts are full or nearly so, which does not show that the dose was tolerated: the source hardly ever lists a survival T/C far under the control, and the zero likely stands for such cases as well. Survivors were counted at the toxicity check, usually on the fifth day, unless a day is given; later deaths do not show. Schedules are NCI's codes, read here as Q, the interval in days (D) or hours (H), X, the number of doses. Some entries hold several experiments; their values stand side by side, smallest first. Some schedules carry Z or #; the key to these is not given. Some molecules as drawn cover several salts, stereoisomers or complexes of the source; a dose is that of the sample tested. For survival time, the PubChem record calls one and a half times the control and up active, and a quarter to a half above the control has no call in these data; cut-offs in other NCI protocols can differ.

Test system: L1210 leukemia ip in BDF1 mice, survival T/C
Assay: NCI In Vivo Anticancer Drug Screen. Data for tumor model L1210 Leukemia (intraperitoneal) in B6D2F1 (BDF1) mice
Settings: T/C endpoint: mean survival time, higher T/C = longer survival
[1] = dose: 200.0 mg/kg/injection, schedule: Q01DX001 (ip), vehicle: saline
[2] = dose: 200.0 mg/kg/injection, schedule: Q04DX003 (ip), vehicle: Klucel (hydroxypropylcellulose) (HPC)
[3] = dose: 400.0 mg/kg/injection, schedule: Q01DX001 (ip), vehicle: saline
[4] = dose: 50.0 mg/kg/injection, schedule: Q01DX009 (ip), vehicle: saline with Tween-80
[5] = dose: 200.0 mg/kg/injection, schedule: Q04DX003 (ip), vehicle: saline with Tween-80
[6] = dose: 400.0 mg/kg/injection, schedule: Q04DX003 (ip), vehicle: saline with Tween-80
[7] = dose: 50.0 mg/kg/injection, schedule: Q01DX009 (ip), vehicle: saline
[8] = dose: 100.0 mg/kg/injection, schedule: Q01DX009 (ip), vehicle: saline
[9] = dose: 200.0 mg/kg/injection, schedule: Q01DX009 (ip), vehicle: saline
[10] = dose: 400.0 mg/kg/injection, schedule: Q01DX009 (ip), vehicle: saline
[11] = dose: 400.0 mg/kg/injection, schedule: Q04DX003 (ip), vehicle: Klucel (hydroxypropylcellulose) (HPC)
[12] = dose: 100.0 mg/kg/injection, schedule: Q01DX001 (ip), vehicle: saline
[13] = dose: 12.5 mg/kg/injection, schedule: Q01DX009 (ip), vehicle: saline

Compound: c1nnc(NCNc2nncs2)s1
- T/C (dose: 4.0 mg/kg/injection, schedule: Q01DX009 (ip), vehicle: Klucel (hydroxypropylcellulose) (HPC)): 131 % of control
- T/C (dose: 8.0 mg/kg/injection, schedule: Q04DX003 (ip), vehicle: Klucel (hydroxypropylcellulose) (HPC)): 125 % of control
- T/C (dose: 9.0 mg/kg/injection, schedule: Q01DX009 (ip), vehicle: Klucel (hydroxypropylcellulose) (HPC)): 134 % of control
- T/C (dose: 13.0 mg/kg/injection, schedule: Q01DX009 (ip), vehicle: Klucel (hydroxypropylcellulose) (HPC)): 129 % of control
- T/C (dose: 26.0 mg/kg/injection, schedule: Q04DX003 (ip), vehicle: Klucel (hydroxypropylcellulose) (HPC)): 132 % of control
- T/C (dose: 30.0 mg/kg/injection, schedule: Q01DX009 (ip), vehicle: saline): 130 % of control
- T/C (dose: 40.0 mg/kg/injection, schedule: Q04DX003 (ip), vehicle: Klucel (hydroxypropylcellulose) (HPC)): 130 % of control
- T/C (dose: 60.0 mg/kg/injection, schedule: Q04DX003 (ip), vehicle: Klucel (hydroxypropylcellulose) (HPC)): 135 % of control
- T/C (dose: 88.0 mg/kg/injection, schedule: Q04DX003 (ip), vehicle: Klucel (hydroxypropylcellulose) (HPC)): 142 % of control
- T/C (dose: 100.0 mg/kg/injection, schedule: Q04DX003 (ip), vehicle: saline): 139 % of control
- T/C (dose: 132.0 mg/kg/injection, schedule: Q04DX003 (ip), vehicle: Klucel (hydroxypropylcellulose) (HPC)): 148 % of control
- T/C [1]: 127 % of control
- T/C [2]: 148 % of control
- T/C [3]: 130 % of control
- survivor count (dose: 400.0 mg/kg/injection, schedule: Q04DX003 (ip), vehicle: saline): 6 of 6

Compound: Nc1ncnc2c1ncn2C1OC(CO)C(O)C1O (centres undefined)
- survivor count (dose: 60.0 mg/kg/injection, schedule: Q#A X012 (ip), vehicle: methylcellulose (MC)): 3 of 7
- T/C (dose: 110.0 mg/kg/injection, schedule: Q03HX024 (ip), vehicle: saline with Tween-80): 133 % of control
- T/C (dose: 160.0 mg/kg/injection, schedule: Q03HX024 (ip), vehicle: saline with Tween-80): 135 % of control
- survivor count [1]: 0 of 3
- T/C (dose: 200.0 mg/kg/injection, schedule: Q03HX024 (ip), vehicle: saline with Tween-80): 138 % of control
- T/C (dose: 240.0 mg/kg/injection, schedule: Q03HX024 (ip), vehicle: saline with Tween-80): 142 and 143 % of control
- T/C (dose: 300.0 mg/kg/injection, schedule: Q03HX024 (ip), vehicle: saline with Tween-80): 145 % of control
- survivor count [3]: 0 of 3
- T/C (dose: 400.0 mg/kg/injection, schedule: Q01DX009 (ip), vehicle: carboxymethylcellulose (CMC)): 128 % of control
- T/C (dose: 400.0 mg/kg/injection, schedule: Q01DX009 (ip), vehicle: saline with Tween-80): 135 % of control
- T/C (dose: 400.0 mg/kg/injection, schedule: Q03HX024 (ip), vehicle: saline with Tween-80): 133 % of control
- T/C (dose: 600.0 mg/kg/injection, schedule: Q01DX009 (ip), vehicle: carboxymethylcellulose (CMC)): 126 % of control
- T/C (dose: 600.0 mg/kg/injection, schedule: Q01DX009 (ip), vehicle: saline with Tween-80): 132 % of control
- survivor count (dose: 1200.0 mg/kg/injection, schedule: Q01DX009 (ip), vehicle: saline): 1 of 6

Compound: Oc1ccc(/C=N/NC(=S)NN2CCOCC2)nc1
- survivor count [4]: 1 of 3
- survivor count (dose: 75.0 mg/kg/injection, schedule: Q04DX002 (ip), vehicle: saline with Tween-80): 3 of 3
- survivor count (dose: 100.0 mg/kg/injection, schedule: Q01DX009 (ip), vehicle: saline with Tween-80): 1 of 3

Compound: CC[N+](C)(CC)CCCNC(=O)C(c1ccccc1)c1ccccc1
- survivor count [5]: 1 of 6
- survivor count [6]: 0 of 6

Compound: CCN(CC)Cc1ccc(N)cc1
- survivor count [7]: 6 of 6
- survivor count [8]: 1 of 6
- survivor count [9]: 0 of 6
- survivor count [10]: 0 of 6

Compound: COc1ccc2c(c1)CCC1C2CCC2(C)C1CCC2(C)N(C)C (centres undefined)
- survivor count (dose: 100.0 mg/kg/injection, schedule: Q01DX001 (sc), vehicle: steroid suspending solution): 1 of 4
- survivor count (dose: 200.0 mg/kg/injection, schedule: Q01DX001 (sc), vehicle: steroid suspending solution): 1 of 4
- survivor count (dose: 400.0 mg/kg/injection, schedule: Q01DX001 (sc), vehicle: steroid suspending solution): 1 of 4

Compound: O=C1NNC(=O)NN1
- survivor count [2]: 1 of 6
- survivor count [11]: 0 of 6

Compound: O=NN(CCCl)C(=O)c1cc(Cl)cc(Cl)c1
- survivor count (dose: 100.0 mg/kg/injection, schedule: Q04DX003 (ip), vehicle: saline with Tween-80): 2 of 6
- survivor count [5]: 1 of 6
- survivor count [6]: 0 of 6

Compound: CC1(CCC(=O)/C=C/c2ccccc2)CCC/C(=C/c2ccccc2)C1=O (centres undefined)
- survivor count (dose: 100.0 mg/kg/injection, schedule: Q01DX009 (ip), vehicle: Klucel (hydroxypropylcellulose) (HPC)): 6 of 6
- survivor count (dose: 200.0 mg/kg/injection, schedule: Q01DX009 (ip), vehicle: Klucel (hydroxypropylcellulose) (HPC)): 6 of 6
- survivor count (dose: 400.0 mg/kg/injection, schedule: Q01DX009 (ip), vehicle: Klucel (hydroxypropylcellulose) (HPC)): 6 of 6

Compound: C=C1CC(C)(c2ccccn2)OC1=O (centres undefined)
- survivor count (dose: 50.0 mg/kg/injection, schedule: Q01DX001 (ip), vehicle: Klucel (hydroxypropylcellulose) (HPC)): 3 of 3
- T/C (dose: 200.0 mg/kg/injection, schedule: Q01DX001 (ip), vehicle: Klucel (hydroxypropylcellulose) (HPC)): 128 % of control

Compound: CCOC(=O)/C=C(\CC(=O)OCC)Nc1ccc(C(=O)c2ccccc2)cc1
- survivor count [12]: 6 of 6
- survivor count [3]: 2 of 6

Compound: Cn1c(=O)c2c(nc(OCC3CCCO3)n2C)n(C)c1=O (centres undefined)
- survivor count [3]: 1 of 4

Compound: NC(CO)CSCc1ccccc1 (centres undefined)
- survivor count [9]: 1 of 6
- survivor count [10]: 0 of 6

Compound: O=C(O)CSc1cc(Cl)c(Cl)cc1Cl
- survivor count (dose: 350.0 mg/kg/injection, schedule: Q04DX003 (ip), vehicle: other): 0 of 6

Compound: Cc1ccc(S(=O)(=O)/C(Cl)=C(/Cl)S(=O)(=O)c2ccc(C)cc2)cc1
- survivor count (dose: 12.5 mg/kg/injection, schedule: Q01DX009 (ip), vehicle: saline with Tween-80): 6 of 6
- survivor count [13]: 0 of 6
- survivor count (dose: 25.0 mg/kg/injection, schedule: Q01DX009 (ip), vehicle: saline with Tween-80): 6 of 6
- survivor count (dose: 25.0 mg/kg/injection, schedule: Q04DX003 (ip), vehicle: saline): 5 of 6
- survivor count (dose: 50.0 mg/kg/injection, schedule: Q01DX001 (ip), vehicle: saline): 0 of 6
- survivor count [4]: 3 of 6 and 6 of 6
- survivor count [12]: 0 of 6 and 1 of 6
- survivor count (dose: 100.0 mg/kg/injection, schedule: Q04DX003 (ip), vehicle: Klucel (hydroxypropylcellulose) (HPC)): 5 of 6
- survivor count [1]: 1 of 6
- survivor count [2]: 1 of 6
- survivor count [3]: 0 of 6
- survivor count [11]: 0 of 6

Compound: O=c1[nH]c(=O)c2nccnc2[nH]1
- survivor count (dose: 400.0 mg/kg/injection, schedule: Q01DX009 (ip), vehicle: water): 1 of 6

Compound: O=C(C#Cc1ccccc1)[O][Sn]([c]1ccccc1)([c]1ccccc1)[c]1ccccc1
- survivor count [13]: 1 of 6
- survivor count (dose: 25.0 mg/kg/injection, schedule: Q01DX009 (ip), vehicle: saline): 0 of 6
- survivor count [7]: 0 of 6
- survivor count [8]: 0 of 6
- survivor count (dose: 100.0 mg/kg/injection, schedule: Q04DX002 (ip), vehicle: saline): 2 of 3
- survivor count (dose: 200.0 mg/kg/injection, schedule: Q04DX002 (ip), vehicle: saline): 0 of 3
- survivor count (dose: 400.0 mg/kg/injection, schedule: Q04DX002 (ip), vehicle: saline): 0 of 3

Compound: NNC(=O)CCc1ccccc1[N+](=O)[O-]
- survivor count (dose: 300.0 mg/kg/injection, schedule: Q01DX001 (ip), vehicle: saline): 3 of 6

Compound: O=C(O)c1c(O)c(-c2ccccc2)nc2ccccc12
- survivor count [11]: 2 of 6
